Data published in patent US20100204295A1, “TREATMENT OF ALLERGIC DISEASE WITH IMMUNOMODULATOR COMPOUNDS” (SCICLONE PHARMACEUTICALS, INC., priority 2007, published 2010).

Assay: Interference of SCV-07 with EPO, MPO and OD412 measurements in vitro
Details: SCV-07 at 0.3 ug/ml

## N[C@H](CCC(=O)N[C@@H](Cc1c[nH]c2ccccc12)C(=O)O)C(=O)O [SCV-07, γ-D-glutamyl-L-tryptophan]
  Interference with OD 412 measurements in vitro: did not interfere
